# Data from PubChem BioAssay AID743255 (National Center for Advancing Translational Sciences (NCATS), 2014).
# Sequences of proteins named here, by UniProt entry; tags and fusion partners are left off. A change or cut given only in a name is not applied to a line headed by its entry.
# UniProt O94782: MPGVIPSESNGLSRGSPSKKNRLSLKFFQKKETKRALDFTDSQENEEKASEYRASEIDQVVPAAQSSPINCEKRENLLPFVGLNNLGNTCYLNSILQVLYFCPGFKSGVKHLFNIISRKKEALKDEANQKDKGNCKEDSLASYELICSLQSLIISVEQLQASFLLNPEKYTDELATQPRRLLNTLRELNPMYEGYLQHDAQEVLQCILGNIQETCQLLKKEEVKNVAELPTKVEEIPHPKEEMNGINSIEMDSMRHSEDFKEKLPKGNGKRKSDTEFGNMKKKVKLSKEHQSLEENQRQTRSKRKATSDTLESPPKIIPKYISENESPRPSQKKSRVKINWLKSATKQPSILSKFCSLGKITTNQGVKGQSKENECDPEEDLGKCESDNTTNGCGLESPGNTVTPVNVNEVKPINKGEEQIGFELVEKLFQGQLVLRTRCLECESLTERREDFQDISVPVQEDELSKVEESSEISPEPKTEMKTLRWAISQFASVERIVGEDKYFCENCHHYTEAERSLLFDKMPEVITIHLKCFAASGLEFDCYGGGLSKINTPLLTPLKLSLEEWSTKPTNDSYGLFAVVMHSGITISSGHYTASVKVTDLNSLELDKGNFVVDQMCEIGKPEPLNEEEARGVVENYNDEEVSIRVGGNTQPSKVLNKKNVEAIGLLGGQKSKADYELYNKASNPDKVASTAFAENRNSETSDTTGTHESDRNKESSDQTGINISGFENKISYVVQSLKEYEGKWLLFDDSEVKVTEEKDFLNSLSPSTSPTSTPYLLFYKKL
# In all, about 390,000 compounds went through this assay and about 910 (0.23%) were called active. Inconclusive means that the source gave no clear call. Such entries were picked first, then a sample of the others. The call rests on the fitted dose curve; in most records, active means well fitted inhibition curve with a large enough effect; inconclusive means small, poorly fitted or top-dose-only effect; inactive means no such curve, though single readings can be large or run the other way. Potencies of inconclusive entries are doubtful fits and often do not repeat.
# Molecular target: Ubiquitin carboxyl-terminal hydrolase 1 (Homo sapiens) (UniProt O94782)
# Assay: Inhibitors of USP1/UAF1: Primary Screen; further: nearly all actives have a fitted effect of over 60% in size
# Conditions: recombinant USP1/UAF1, Ub-Rhodamine cleavage fluorescence; series mostly up to 57.1 µM
# In short: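 Step one: compound is pinned into 1nM USP1/UAF1 in HEPES pH 7.8 buffer with TCEP. Step two: 15 min room-temperature incubation. Step three: Ub-Rho (150nM final) starts cleavage, tracked by fluorescence over six one-minute reads.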
# Potency means the concentration at half of the fitted maximal effect.
row,Structure (SMILES),Potency
1,NC(=O)c1nsc(C(=O)N(c2ccccc2)C(C(=O)NCc2ccc(F)cc2)c2ccco2)c1N (stereo unspecified),"inconclusive: 28.2 µM [inhibitor, single point]"
2,CC(C)Cn1c(-c2cccc(Br)c2)nc2ccccc21,"inconclusive: 2.51 µM [inhibitor, full curve]"
3,COc1cc(Cl)c(C)cc1NC(=O)c1cnc(N2CCCCC2)c2ccccc12,"inconclusive: 0.0891 µM [inhibitor, full curve, poor fit]"
4,CCCOc1ccc(CNC(=O)C(NS(=O)(=O)c2cccs2)C(C)C)cc1 (stereo unspecified),"inconclusive: 44.7 µM [inhibitor, partial curve]"
5,C#CCOCCOCCOCCNc1nc(N2CCN(C(=O)CCCCCCCCCCNC(=O)[C@H](CCCCN)n3cc(CCO)nn3)CC2)nc(N2CCN(C(=O)CCCCCCCCCCNC(=O)[C@H](CCCCN)n3cc(C[C@@H](C)CC)nn3)CC2)n1,"inconclusive: 39.8 µM [inhibitor, partial curve, poor fit]"
6,COc1cc(NC(=O)CSc2nc3nc(C)c(Cc4ccccc4Cl)c(C)n3n2)cc(OC)c1,"inconclusive: 2.24 µM [inhibitor, partial curve]"
7,Cc1ccc(NC(=O)COc2cccc(/C=C3\SC(=S)N(CCC(=O)O)C3=O)c2)cc1Cl,"inconclusive: 31.6 µM [inhibitor, partial curve]"
8,COc1ccc(NC(=O)/C(Cl)=C(/Cl)S(=O)(=O)Cc2ccc(C)cc2)cn1,"inconclusive: 14.1 µM [inhibitor, partial curve]"
9,Clc1ccc(OCc2nnc(-c3ccccc3Br)o2)c(Cl)c1,"inconclusive: 31.6 µM [inhibitor, single point]"
10,CCN1CCN(C(c2cccc(OC)c2)c2sc3nc(C)nn3c2O)CC1 (stereo unspecified),inactive
11,COC(=O)c1ccc(OCCOc2ccccc2C)cc1,"inconclusive: 35.5 µM [inhibitor, partial curve]"
12,CCc1ccc(NC(=O)CSc2nc(=O)n(CCCN3CCOCC3)c3c2CCC3)cc1,inactive
13,CCCSc1ncnc2[nH]ncc12,"inconclusive: 0.355 µM [inhibitor, full curve, poor fit]"
14,Cc1ccc(S(=O)(=O)N2CCOCC2)cc1C(=O)N1c2ccccc2Sc2ccccc21,"inconclusive: 79.4 µM [inhibitor, partial curve, poor fit]"
15,Cc1cccc2c(N=Nc3ccc(S(=O)(=O)Nc4ccc(Cl)cc4)cc3[N+](=O)[O-])c(O)[nH]c12,inactive
16,O=C(c1ccc2c(c1)N(Cc1ccc(F)cc1)C(=O)c1ccccc1S2(=O)=O)N1CCCCC1,"inconclusive: 0.0398 µM [inhibitor, full curve, poor fit]"
17,COc1cc(/C=N/NC(=O)CSc2cc(C)c(Br)cc2C)ccc1O,inactive
18,CCCCCCOc1ccc(C2C(=O)N(C3CCCCC3)CC(=O)N2C2CCCCC2)cc1 (stereo unspecified),"inconclusive: 0.794 µM [inhibitor, full curve, poor fit]"
19,Cc1ccc(N=c2c([N+](=O)[O-])nn(-c3ccc4c(c3)OCCO4)n2O)cc1F,inactive
20,CCN(C(=O)CN1C(=S)NC(C)(C)CC1C)c1ccc(C)c(C)c1 (stereo unspecified),"inconclusive: 0.794 µM [inhibitor, full curve]"
21,COc1ccc(OC)c(NS(=O)(=O)c2ccc(NC(=O)C3COc4ccccc4O3)cc2)c1 (stereo unspecified),"inconclusive: 1 µM [inhibitor, full curve, poor fit]"
22,CCc1c(C)c2cc3c(c(C)c2oc1=O)OCN(CCc1ccccc1F)C3,"inconclusive: 3.98 µM [inhibitor, full curve, poor fit]"

row,Structure (SMILES),Potency
1,O=C(C1=C(O)C(=O)N(CC2CCCO2)C1c1ccc(Cl)cc1Cl)c1ccco1 (stereo unspecified),"inconclusive: 31.6 µM [inhibitor, single point]"
2,Cc1ccc(-n2ncc(C(=O)NCc3ccco3)c2C2CCN(C(=O)OC(C)(C)C)CC2)cc1C,"inconclusive: 0.708 µM [inhibitor, full curve]"
3,COc1ccc(CC(=O)NCc2n[nH]c(=S)n2C)cc1,inactive
4,Oc1ccc(CCc2ccccn2)cc1,"inconclusive: 3.16 µM [inhibitor, partial curve]"
5,CCCc1nn2c(=O)cc(COC(=O)CNC(=O)COc3ccc(C)cc3)nc2s1,inactive
6,O=C1C=C(c2ccc(Cl)nc2)C[C@@H](c2ccc3c(c2)OCO3)C1,"inconclusive: 39.8 µM [inhibitor, partial curve, poor fit]"
7,O=C(/C=C/c1cccc([N+](=O)[O-])c1)N1CCN(c2ccccc2F)CC1,inactive
8,O=c1cc(-c2ccc(O)cc2)oc2c(-c3c(O)cc(O)c4c(=O)cc(-c5ccc(O)cc5)oc34)c(O)cc(O)c12,inactive
9,COc1cccc(NC(=O)C2CCC(CNS(=O)(=O)c3cccc4cccnc34)CC2)c1 (stereo unspecified),"inconclusive: 0.251 µM [inhibitor, full curve, poor fit]"
10,CC1=NN(c2ccccc2)C(=O)/C1=C\C=C\c1ccccc1,"inconclusive: 35.5 µM [inhibitor, partial curve]"
11,CC(=O)Nc1ccc(Nc2cc(C(C)C)nc3c(-c4ccccc4)c(C)nn23)cc1,inactive
12,O=C(O)c1ccccc1N=Nc1ccc(O)cc1,inactive
13,Cc1nc2ccc(NC(=S)NC(C)C)cc2nc1C,"inconclusive: 8.91 µM [inhibitor, full curve, poor fit]"
14,CN(C(=O)c1ccc2c(c1)C(=O)N(CCC1=CCCCC1)C2=O)C1CCCCC1,"inconclusive: 39.8 µM [inhibitor, partial curve]"
15,COCCSc1ccccc1C(=O)N1CCc2ccccc2C1,"inconclusive: 44.7 µM [inhibitor, partial curve, poor fit]"
16,CCc1ccc(Nc2nc3ccccc3nc2NS(=O)(=O)c2ccccc2)cc1,"inconclusive: 0.631 µM [inhibitor, full curve, poor fit]"
17,CC1CCN(C(=O)CSc2nc(-c3ccc(F)cc3)cc(C(F)(F)F)n2)CC1,"inconclusive: 39.8 µM [inhibitor, single point]"
18,COc1cccc(CNS(=O)(=O)c2ccc3c(c2)CC(C)N3C(=O)C2CC2)c1 (stereo unspecified),inactive
19,COc1ccc(NC(=O)C2CCN(S(=O)(=O)c3c(C)noc3/C=C/c3cccs3)CC2)cc1Cl,inactive
20,O=[N+]([O-])c1cc2ccccc2c(O)c1O,"inconclusive: 44.7 µM [inhibitor, partial curve, poor fit]"
21,O=C1CCC[C@@H]2[C@@H](Cc3ccccc3)[C@H](N3CCN(c4ccccc4)CC3)C[C@@H]3CCN1[C@@H]32,"inconclusive: 56.2 µM [inhibitor, partial curve, poor fit]"
22,O=C(Nc1cccc([N+](=O)[O-])c1)C1CC(=O)N(Cc2ccccc2)C1 (stereo unspecified),"inconclusive: 35.5 µM [inhibitor, partial curve, poor fit]"

row,Structure (SMILES),Potency
1,COc1cccc(CN(C)CC(=O)Nc2ccccc2C(=O)Nc2ccccc2)c1,"inconclusive: 10 µM [inhibitor, single point]"
2,c1ccc(-c2cc3n(c2)CCc2ccccc2-3)cc1,inactive
3,CCCC(C)c1nnc(NC(=O)CS(=O)(=O)Cc2ccccc2)s1 (stereo unspecified),inactive
4,CCOc1ccc(N2C(=O)/C(=C/c3ccco3)N(C)C2=S)cc1,inactive
5,CC(=O)Nc1ncc(Cc2cccc(Cl)c2Cl)s1,"inconclusive: 35.5 µM [inhibitor, partial curve]"
6,Cc1ccc(S(=O)(=O)N(C)C)cc1NC(=O)CN1c2cccc3cccc(c23)S1(=O)=O,"inconclusive: 50.1 µM [inhibitor, partial curve, poor fit]"
7,CCc1cc2c(cc3c(=O)n(CC(=O)NCCc4ccc(OC)cc4OC)nc(CC)n32)s1,"inconclusive: 0.631 µM [inhibitor, full curve, poor fit]"
8,Cc1ccc(-n2cnnn2)cc1S(N)(=O)=O,"inconclusive: 5.01 µM [inhibitor, partial curve]"
9,COC(=O)c1ccc(CSC(=N)N)o1,inactive
10,CCOC(=O)c1sc(Nc2nc3cc4c(cc3s2)OCO4)cc1C,inactive
11,C=C(C)Cn1c(N2CCCC2)nc2c1c(=O)[nH]c(=O)n2C,"inconclusive: 39.8 µM [inhibitor, partial curve, poor fit]"
12,O=C(NCCC1=CCCCC1)c1ccc2c(c1)sc1nc(-c3ccc(F)cc3)cn12,inactive
13,COc1ccc(NC(=O)c2cccc(N3CCCS3(=O)=O)c2)c(OC)c1,inactive
14,Cc1nn(C)c(C)c1N=Cc1c(O)ccc2ccccc12,"inconclusive: 28.2 µM [inhibitor, single point]"
15,Cn1c(=NC(=O)CCl)sc2ccccc21,inactive
16,Cc1ccc(S(=O)(=O)N2CCN(Cc3ccccc3Cl)CC2)cc1,"inconclusive: 50.1 µM [inhibitor, partial curve, poor fit]"
17,COc1ccc(NC(=O)CCS(=O)(=O)c2cccc3nonc23)c(OC)c1,"inconclusive: 70.8 µM [inhibitor, partial curve, poor fit]"
18,O=C(Nc1ccc(N2CCOCC2)cc1)C1CCCCN1S(=O)(=O)c1ccccc1 (stereo unspecified),inactive
19,O=C(CSc1ccccc1F)NC(=O)c1ccccc1Br,"inconclusive: 6.31 µM [inhibitor, full curve]"
20,CC(NC(=O)c1cc2c(=O)n3ccccc3nc2n(C(C)C)c1=N)c1ccccc1 (stereo unspecified),"inconclusive: 50.1 µM [inhibitor, single point]"
21,O=C(O)c1ccccc1SCc1csc(-c2ccccc2)n1,"inconclusive: 35.5 µM [inhibitor, partial curve, poor fit]"
22,CCN(CC)c1ccc(N=Cc2ccc(N(CC)CC)cc2O)cc1,"inconclusive: 4.47 µM [inhibitor, full curve]"

# In the list so far, these contain a Cl atom:
row,Structure (SMILES),Potency
3,COc1cc(Cl)c(C)cc1NC(=O)c1cnc(N2CCCCC2)c2ccccc12,"inconclusive: 0.0891 µM [inhibitor, full curve, poor fit]"
6,COc1cc(NC(=O)CSc2nc3nc(C)c(Cc4ccccc4Cl)c(C)n3n2)cc(OC)c1,"inconclusive: 2.24 µM [inhibitor, partial curve]"
7,Cc1ccc(NC(=O)COc2cccc(/C=C3\SC(=S)N(CCC(=O)O)C3=O)c2)cc1Cl,"inconclusive: 31.6 µM [inhibitor, partial curve]"
8,COc1ccc(NC(=O)/C(Cl)=C(/Cl)S(=O)(=O)Cc2ccc(C)cc2)cn1,"inconclusive: 14.1 µM [inhibitor, partial curve]"
9,Clc1ccc(OCc2nnc(-c3ccccc3Br)o2)c(Cl)c1,"inconclusive: 31.6 µM [inhibitor, single point]"
15,Cc1cccc2c(N=Nc3ccc(S(=O)(=O)Nc4ccc(Cl)cc4)cc3[N+](=O)[O-])c(O)[nH]c12,inactive
1,O=C(C1=C(O)C(=O)N(CC2CCCO2)C1c1ccc(Cl)cc1Cl)c1ccco1 (stereo unspecified),"inconclusive: 31.6 µM [inhibitor, single point]"
6,O=C1C=C(c2ccc(Cl)nc2)C[C@@H](c2ccc3c(c2)OCO3)C1,"inconclusive: 39.8 µM [inhibitor, partial curve, poor fit]"
19,COc1ccc(NC(=O)C2CCN(S(=O)(=O)c3c(C)noc3/C=C/c3cccs3)CC2)cc1Cl,inactive
5,CC(=O)Nc1ncc(Cc2cccc(Cl)c2Cl)s1,"inconclusive: 35.5 µM [inhibitor, partial curve]"
15,Cn1c(=NC(=O)CCl)sc2ccccc21,inactive
16,Cc1ccc(S(=O)(=O)N2CCN(Cc3ccccc3Cl)CC2)cc1,"inconclusive: 50.1 µM [inhibitor, partial curve, poor fit]"

# An excerpt from above in order of SMILES length, smallest number first:
row,Structure (SMILES),Potency
9,Clc1ccc(OCc2nnc(-c3ccccc3Br)o2)c(Cl)c1,"inconclusive: 31.6 µM [inhibitor, single point]"
10,CCOC(=O)c1sc(Nc2nc3cc4c(cc3s2)OCO4)cc1C,inactive
14,Cc1ccc(S(=O)(=O)N2CCOCC2)cc1C(=O)N1c2ccccc2Sc2ccccc21,"inconclusive: 79.4 µM [inhibitor, partial curve, poor fit]"
